± gives the standard deviation of the averaged measurements. This is one part of the list.
Tests used:
Experiment in all cases: NP40-soluble protein abundance relative to vehicle (solubility fold change) (ratio); higher = more soluble protein in presence of GTP
DNAJB2 = biological target: T1, DNAJB2 (UniProt P25686)
T1 sequence (whole entry): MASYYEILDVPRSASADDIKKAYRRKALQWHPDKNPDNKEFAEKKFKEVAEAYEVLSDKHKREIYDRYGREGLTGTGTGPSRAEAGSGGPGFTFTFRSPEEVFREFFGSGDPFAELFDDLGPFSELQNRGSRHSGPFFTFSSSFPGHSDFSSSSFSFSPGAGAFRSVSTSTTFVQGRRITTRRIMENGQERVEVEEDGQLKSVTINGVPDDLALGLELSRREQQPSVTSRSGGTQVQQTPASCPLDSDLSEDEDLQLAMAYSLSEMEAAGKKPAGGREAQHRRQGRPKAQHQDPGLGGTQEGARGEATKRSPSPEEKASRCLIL
Method in brief: (§1)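 Eight concentrations, 0.1 to 10 mM, were tested on Jurkat crude lysate for 10 min at room temperature and then 3 min at 37 °C, in three independent experiments. The lysate was solubilised with 0.8% NP40 and benzonase, ultracentrifuged, and the supernatant TMT-labelled for LC-MS/MS. Each value is the fold change against the detergent-processed vehicle in its own replicate, from vsn-normalised intensities.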

GSTM3 = biological target: T2, GSTM3 (UniProt P21266)
T2 sequence (whole entry): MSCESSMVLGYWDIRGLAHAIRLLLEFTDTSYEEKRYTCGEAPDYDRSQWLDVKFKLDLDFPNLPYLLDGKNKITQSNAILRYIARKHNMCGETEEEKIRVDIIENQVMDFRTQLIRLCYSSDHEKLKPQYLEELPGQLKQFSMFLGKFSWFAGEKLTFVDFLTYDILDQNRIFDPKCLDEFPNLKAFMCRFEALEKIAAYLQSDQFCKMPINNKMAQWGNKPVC
Method in brief: as §1

JUND = biological target: T3, JUND (UniProt P17535)
T3 sequence (whole entry): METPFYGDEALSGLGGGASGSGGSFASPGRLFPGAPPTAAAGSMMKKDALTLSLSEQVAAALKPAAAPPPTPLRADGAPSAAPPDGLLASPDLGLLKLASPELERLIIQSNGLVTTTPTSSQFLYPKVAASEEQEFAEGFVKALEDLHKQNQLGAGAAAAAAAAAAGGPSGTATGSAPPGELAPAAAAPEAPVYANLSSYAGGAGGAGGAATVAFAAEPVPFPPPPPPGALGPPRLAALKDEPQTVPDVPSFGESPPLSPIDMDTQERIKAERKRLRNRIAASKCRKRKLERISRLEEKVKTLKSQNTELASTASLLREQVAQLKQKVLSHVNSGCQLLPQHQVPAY
Method in brief: as §1

LTA4H = biological target: T4, LTA4H (UniProt P09960)
T4 sequence (whole entry): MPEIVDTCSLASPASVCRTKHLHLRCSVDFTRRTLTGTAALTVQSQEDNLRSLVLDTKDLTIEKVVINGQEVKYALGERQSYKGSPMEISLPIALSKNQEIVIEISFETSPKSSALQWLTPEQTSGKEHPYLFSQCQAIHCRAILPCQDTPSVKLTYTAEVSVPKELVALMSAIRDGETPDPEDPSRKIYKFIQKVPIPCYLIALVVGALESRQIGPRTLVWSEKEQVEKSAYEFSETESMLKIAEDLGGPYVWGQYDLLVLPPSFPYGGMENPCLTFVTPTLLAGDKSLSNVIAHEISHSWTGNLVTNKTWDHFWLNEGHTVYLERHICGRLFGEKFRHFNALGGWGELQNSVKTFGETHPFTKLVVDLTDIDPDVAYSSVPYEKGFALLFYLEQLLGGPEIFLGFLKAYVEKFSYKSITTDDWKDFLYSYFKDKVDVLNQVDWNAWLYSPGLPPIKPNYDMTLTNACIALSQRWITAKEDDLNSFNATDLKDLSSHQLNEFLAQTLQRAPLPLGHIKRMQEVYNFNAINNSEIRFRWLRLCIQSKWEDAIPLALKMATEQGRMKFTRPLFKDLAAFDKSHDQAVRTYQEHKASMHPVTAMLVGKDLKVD
Method in brief: as §1

`Nc1nc2c(ncn2[C@@H]2O[C@H](COP(=O)(O)OP(=O)(O)OP(=O)(O)O)[C@@H](O)[C@H]2O)c(=O)[nH]1` [guanosine triphosphate] gave an NP40-soluble protein abundance (DNAJB2; concentration: 0.1mM) of 1.09 ± 0.14, an NP40-soluble protein abundance (DNAJB2; concentration: 0.5mM) of 1.02 ± 0.032 and an NP40-soluble protein abundance (DNAJB2; concentration: 1mM) of 1.06 ± 0.13. For the same molecule, the NP40-soluble protein abundance (DNAJB2; concentration: 2mM) was 1.022 ± 0.01, the NP40-soluble protein abundance (DNAJB2; concentration: 4mM) was 1.03 ± 0.04 and the NP40-soluble protein abundance (DNAJB2; concentration: 6mM) was 1.02 ± 0.052. For the same molecule, the NP40-soluble protein abundance (DNAJB2; concentration: 8mM) was 1.03 ± 0.088, the NP40-soluble protein abundance (DNAJB2; concentration: 10mM) was 1.03 ± 0.082 and the NP40-soluble protein abundance (GSTM3; concentration: 0.1mM) was 1.03 ± 0.048. For the same molecule, the NP40-soluble protein abundance (GSTM3; concentration: 0.5mM) was 1.05 ± 0.043, the NP40-soluble protein abundance (GSTM3; concentration: 1mM) was 0.941 ± 0.033 and the NP40-soluble protein abundance (GSTM3; concentration: 2mM) was 0.937 ± 0.047. The NP40-soluble protein abundance (GSTM3; concentration: 4mM) was 0.906 ± 0.046, the NP40-soluble protein abundance (GSTM3; concentration: 6mM) was 0.904 ± 0.046 and the NP40-soluble protein abundance (GSTM3; concentration: 8mM) was 0.845 ± 0.051. It also gave an NP40-soluble protein abundance (GSTM3; concentration: 10mM) of 0.861 ± 0.12, an NP40-soluble protein abundance (JUND; concentration: 0.1mM) of 0.993 ± 0.12 and an NP40-soluble protein abundance (JUND; concentration: 0.5mM) of 0.936 ± 0.076. It also gave an NP40-soluble protein abundance (JUND; concentration: 1mM) of 1.12 ± 0.12, an NP40-soluble protein abundance (JUND; concentration: 2mM) of 1.01 ± 0.027 and an NP40-soluble protein abundance (JUND; concentration: 4mM) of 0.998 ± 0.088. For the same molecule, the NP40-soluble protein abundance (JUND; concentration: 6mM) was 1.07 ± 0.085, the NP40-soluble protein abundance (JUND; concentration: 8mM) was 1.08 ± 0.065 and the NP40-soluble protein abundance (JUND; concentration: 10mM) was 1.1 ± 0.092. For the same molecule, the NP40-soluble protein abundance (LTA4H; concentration: 0.1mM) was 1 ± 0.039, the NP40-soluble protein abundance (LTA4H; concentration: 0.5mM) was 1.02 ± 0.064 and the NP40-soluble protein abundance (LTA4H; concentration: 1mM) was 0.907 ± 0.025. The NP40-soluble protein abundance (LTA4H; concentration: 2mM) was 0.893 ± 0.071, the NP40-soluble protein abundance (LTA4H; concentration: 4mM) was 0.872 ± 0.06 and the NP40-soluble protein abundance (LTA4H; concentration: 6mM) was 0.883 ± 0.038. For the same molecule, the NP40-soluble protein abundance (LTA4H; concentration: 8mM) was 0.848 ± 0.033 and the NP40-soluble protein abundance (LTA4H; concentration: 10mM) was 0.81 ± 0.068.

Reference: the supplement of paper PMC6411743
